Experimental data published in PubChem BioAssay AID504834 (National Center for Advancing Translational Sciences (NCATS), 2011).
Hit rate of the full screen: of about 320,000 compounds, about 22,000 (6.9%) were called active. Inconclusive means that the source gave no clear call. Such entries were picked first, then a sample of the others. Calls follow the shape of the dose curve; as a rule, active = well fitted inhibition curve with a large enough effect; inconclusive = small, poorly fitted or top-dose-only effect, or another doubt; inactive = no such curve, though single readings can be large or run the other way. Potencies beside an inconclusive call are fits to weak or partial responses and may not hold up. A structure can be active in one record and inactive in another.
Potency is read from the fitted curve at half-maximal effect.

Experiment: Primary qHTS for delayed death inhibitors of the malarial parasite plastid, 96 hour incubation
Settings: P. falciparum luciferase reporter growth; series mostly up to 28.7 µM
Method in brief: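 P. falciparum expressing integrated firefly luciferase, in erythrocytes at 2% hematocrit, 0.05% parasitemia, incubated with compounds 96 h at 37 C, 5% CO2. Growth inhibition read as loss of luminescence; two-generation exposure targets delayed-death apicoplast inhibitors.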
In the case of `Cn1sccc1=O`, the Potency is reported as “inactive”. In the case of `COC(/C=C/Nc1ccc(Br)cc1)=C(C#N)C#N`, the Potency is reported as “inactive”. In the case of `O=C(O)CCc1nc2ccccc2[nH]1`, the Potency is reported as “inactive”. For `Cc1cc(C)c(OCC(=O)Nc2cccc(NC(=O)c3ccco3)c2)c(Br)c1`, the Potency was inconclusive: 18.5 µM [inhibitor, single point]. In the case of `COc1ccc(C(C)=O)cc1Cn1nc(C)c([N+](=O)[O-])c1C`, the Potency is reported as inconclusive: 0.0131 µM [inhibitor, full curve, poor fit]. In the case of `CN(Cc1ccc(Cl)c(Cl)c1)C(=O)c1ccccc1SCC(=O)N1CCCC1`, the Potency is reported as inconclusive: 18.5 µM [inhibitor, single point]. In the case of `O=C(O)CC(c1cccc2ccccc12)N1Cc2ccccc2C1=O` (stereo not given), the Potency is reported as inconclusive: 2.62 µM [inhibitor, full curve, poor fit]. With `CCOC(=O)c1[nH]nc(N)c1NC(=O)c1ccc(Cl)cc1Cl` the Potency was “inactive”. In the case of `CCN(CC)CCNC(=O)c1ccc(NC(=O)Nc2cccc3ccccc23)cc1`, the Potency is reported as active: 9.28 µM. For `CCCc1nc2oc3c(N4CCNCC4)ncnc3c2c2c1CCCC2`, the Potency was inconclusive: 10.4 µM [inhibitor, partial curve, poor fit]. For `CCOC(=O)c1c(N)sc2c1CCS(=O)(=O)C2`, the Potency was inconclusive: 20.8 µM [inhibitor, partial curve, poor fit]. In the case of `Nc1nnc(SCC(=O)c2cccc([N+](=O)[O-])c2)s1`, the Potency is reported as inconclusive: 18.5 µM [inhibitor, single point]. In the case of `CNC(=S)NCCC(c1ccccc1)c1ccccc1`, the Potency is reported as “inactive”. With `O=C(CCCN1Cc2ccccc2C1)c1ccc(F)cc1` the Potency was active: 5.22 µM. With `CCn1c(CC(=O)Nc2ccc(C)cc2)n[nH]c1=S` the Potency was inconclusive: 11.7 µM [inhibitor, single point]. With `O=[N+]([O-])c1ccc(Cl)c(S(=O)(=O)N2CCCCCC2)c1` the Potency was active: 10.4 µM. In the case of `Cc1cnn(-c2ccc3nnc(-c4ccc(Cl)cc4)n3n2)c1`, the Potency is reported as inconclusive: 18.5 µM [inhibitor, single point]. For `CCn1nnc2cc(C(=O)Nc3cccc(S(=O)(=O)N(C)C)c3)ccc21`, the Potency was inconclusive: 18.5 µM [inhibitor, single point]. In the case of `CCN(CC)c1ccc(NS(=O)(=O)c2ccc(-c3ccc(=O)[nH]n3)o2)c(C)c1`, the Potency is reported as “inactive”. With `COc1ccccc1N1CCN(C(c2ccc(N(C)C)cc2)c2nnnn2CCc2ccccc2)CC1` (stereo not given) the Potency was inconclusive: 18.5 µM [inhibitor, single point]. In the case of `Nc1cc(OCC(F)(F)F)cc([N+](=O)[O-])c1`, the Potency is reported as “inactive”. With `O=S(=O)(c1cccc(-c2nnc(-c3cccnc3)o2)c1)N1CCCCC1` the Potency was inconclusive: 18.5 µM [inhibitor, single point]. With `CC(=O)c1cccc(Nc2c([N+](=O)[O-])c(=O)oc3ccccc23)c1` the Potency was inconclusive: 13.1 µM [inhibitor, single point]. With `CC(C)CCn1c(SCC(=O)c2ccccc2)nc2c1c(=O)[nH]c(=O)n2C` the Potency was “inactive”. With `COCCn1c(C(C)C)nc2oc3ccccc3c(=O)c2c1=O` the Potency was inconclusive: 5.86 µM [inhibitor, partial curve, poor fit]. In the case of `COc1ccccc1N1CCN(CCC(=O)Nc2cccc(Cl)c2)CC1`, the Potency is reported as inconclusive: 1.31 µM [inhibitor, full curve, poor fit]. With `S=C(Nc1ccccc1)N1CCN(c2ccc(N3CCOCC3)nn2)CC1` the Potency was “inactive”. With `CS(=O)(=O)N(CCc1ccccc1)CC(=O)Nc1ccc(Br)cc1F` the Potency was inconclusive: 8.28 µM [inhibitor, partial curve, poor fit]. In the case of `Cc1ccc(N2CC(C(=O)N/N=C/c3c(F)cccc3Cl)CC2=O)cc1` (stereo not given), the Potency is reported as inconclusive: 7.38 µM [inhibitor, partial curve, poor fit]. For `CC1CCCC(C)N1/N=C/c1cccc([N+](=O)[O-])c1` (stereo not given), the Potency was inconclusive: 0.0041 µM [inhibitor, full curve, poor fit]. For `COc1cccc(NC(=O)CCNS(=O)(=O)c2ccc(Br)s2)c1`, the Potency was inconclusive: 9.28 µM [inhibitor, single point]. With `CSCC[C@H](NC(=O)C1CCN(S(=O)(=O)c2ccc(C)cc2)CC1)C(=O)NC1CCS(=O)(=O)C1` (stereo not given in full) the Potency was inconclusive: 4.65 µM [inhibitor, partial curve, poor fit]. For `CN(CC(=O)N1CCN(c2ccccn2)CC1)S(=O)(=O)c1ccc(Br)cc1`, the Potency was inconclusive: 13.1 µM [inhibitor, single point]. With `Nc1nccs1` the Potency was inconclusive: 1.69 µM [inhibitor, full curve]. For `Cc1nn(-c2ccccc2)c(Cl)c1/C=C(\C#N)C(=O)NC(C)C`, the Potency was inconclusive: 7.38 µM [inhibitor, partial curve, poor fit]. For `CC(C)(C)NC(=O)C1CC1(c1ccccc1)c1ccccc1` (stereo not given), the Potency was inconclusive: 10.4 µM [inhibitor, partial curve]. For `CCc1nnc(NC(=O)C2(C)COC(c3ccc(OC)cc3)OC2)s1` (stereo not given), the Potency was inconclusive: 3.29 µM [inhibitor, full curve, poor fit]. With `COc1ccc(CN2CCC(CNC(=O)NC3CCCCC3)CC2)cc1` the Potency was “inactive”. With `O=C(N/N=C/c1cc([N+](=O)[O-])ccc1O)c1cc(-c2ccccc2)nc2ccccc12` the Potency was “inactive”. For `CN(C)C1(CNC(=O)C2CCN(S(=O)(=O)c3cc(Cl)ccc3Cl)CC2)CCCCC1`, the Potency was “inactive”. For `CC(C)OC(=O)CSc1nc(N2CCOCC2)c2c(c1C#N)CC(C)(C)OC2`, the Potency was inconclusive: 0.928 µM [inhibitor, partial curve]. In the case of `Cn1c(CCn2ccccc2=O)nc2cc(NC(=O)COc3ccccc3)ccc21`, the Potency is reported as active: 10.4 µM. In the case of `CC1CN(c2oc(-c3cccs3)nc2C#N)CC(C)O1` (stereo not given), the Potency is reported as “inactive”. In the case of `COc1ccccc1CNC(=O)CNC(=O)c1ccc(Br)o1`, the Potency is reported as “inactive”. For `O=C(COc1ccc2ccc(=O)oc2c1)Nc1cccc(S(=O)(=O)N2CCCCC2)c1`, the Potency was active: 4.65 µM. For `COC(=O)c1ccc(COc2ccc(-c3nnn(CC(N)=O)n3)cc2)cc1`, the Potency was inconclusive: 13.1 µM [inhibitor, single point]. With `COc1ccccc1CNc1ncnc2c1cnn2-c1ccccc1` the Potency was “inactive”. For `O=C(OCC(=O)N1CCC(Cc2ccccc2)CC1)c1ccc(CO)cc1`, the Potency was inconclusive: 18.5 µM [inhibitor, single point]. With `CC(=O)C1C(c2ccc(Cl)cc2)c2c(n[nH]c2C)CC1(C)O` (stereo not given) the Potency was inconclusive: 10.4 µM [inhibitor, single point]. With `CCCCn1c(N)c(N(CC(C)C)C(=O)CCNC(=O)c2ccc([N+](=O)[O-])cc2)c(=O)[nH]c1=O` the Potency was inconclusive: 18.5 µM [inhibitor, single point]. With `CCN(CCN1CCCC1)C(=O)C1CCC(=O)N(CCCN2CCOCC2)C1` (stereo not given) the Potency was inconclusive: 10.4 µM [inhibitor, single point]. For `CCOc1ccc(CNc2ccc3c(c2)ncn3C)cc1`, the Potency was active: 10.4 µM. In the case of `Cc1cc(C(=O)NCC(=O)O)c(C)o1`, the Potency is reported as inconclusive: 0.0047 µM [inhibitor, full curve, poor fit]. For `CC(NCc1ccc(OCc2ccc(Cl)cc2)cc1)C(O)c1ccccc1` (stereo not given), the Potency was inconclusive: 18.5 µM [inhibitor, partial curve, poor fit]. In the case of `CC(Oc1cccc(F)c1)c1ccnc2nc(/N=C/N(C)C)nn12` (stereo not given), the Potency is reported as “inactive”. With `O=C(Cc1ccccc1)NNC(=O)c1ccc(NC(=O)c2ccccc2)cc1` the Potency was “inactive”. For `CN1C[C@H](CNC(=O)OCc2ccccc2)C[C@@H]2c3cccc4c3c(cn4C)C[C@H]21`, the Potency was active: 2.94 µM. For `Cc1ccc(OCC(=O)N2CCC3(CC2)CC(=O)c2ccccc2O3)cc1`, the Potency was inconclusive: 10.4 µM [inhibitor, single point]. With `CCc1ccc2oc(-c3cc(N)ccc3O)nc2c1` the Potency was inconclusive: 9.28 µM [inhibitor, partial curve, poor fit]. For `Cc1nc2ccccc2n1CC(=O)NC1CCCCCC1`, the Potency was inconclusive: 20.8 µM [inhibitor, single point]. For `CC(=O)c1ccc(-c2ccc([C@H]3[C@@H]4C=CCC[C@@]4(C)C(=O)N3Cc3ccccc3)c(F)c2)cc1`, the Potency was inconclusive: 13.1 µM [inhibitor, single point]. For `COc1ccc(-c2noc(CN(C)C(=O)c3ccc4c(c3)OCO4)n2)cc1OC`, the Potency was inconclusive: 11.7 µM [inhibitor, partial curve]. For `CCOC(=O)c1cc(-c2ccc(Cl)s2)[nH]n1`, the Potency was inconclusive: 4.15 µM [inhibitor, partial curve, poor fit]. For `COc1ccc([N+](=O)[O-])cc1NC(=O)Cc1ccc(C)cc1`, the Potency was inconclusive: 18.5 µM [inhibitor, single point]. With `COc1ccc([N+](=O)[O-])cc1NC(=O)c1cn(-c2ccc(C)c(C)c2)c(=O)c2ccccc12` the Potency was active: 11.7 µM. For `Cc1onc(-c2c(F)cccc2Cl)c1C(=O)N1CCc2ccccc2C1`, the Potency was inconclusive: 18.5 µM [inhibitor, single point]. With `CCc1cccc(CC)c1-n1c(SCC(=O)N2CCc3ccccc3C2)nnc1-c1cccnc1` the Potency was active: 6.57 µM. For `Cc1ccc(N=C2NC(=O)C(CC(=O)NCc3ccccc3)S2)cc1C` (stereo not given), the Potency was “inactive”. For `O=C(O)CCC(=O)N1CCc2cc(S(=O)(=O)NC3CCCc4ccccc43)ccc21` (stereo not given), the Potency was inconclusive: 11.7 µM [inhibitor, partial curve]. For `COc1cccc(-n2ccn(CC(=O)NCCc3ccccc3)c(=O)c2=O)c1`, the Potency was inconclusive: 9.28 µM [inhibitor, partial curve].
